# Assay results as given in publication doi:10.1101/2025.10.31.685804.
# By UniProt entry, the sequences of proteins in these tests, tags left out. Where a name states a change or a piece, a line headed by the entry shows the natural chain unless it says otherwise.
# UniProt O94979: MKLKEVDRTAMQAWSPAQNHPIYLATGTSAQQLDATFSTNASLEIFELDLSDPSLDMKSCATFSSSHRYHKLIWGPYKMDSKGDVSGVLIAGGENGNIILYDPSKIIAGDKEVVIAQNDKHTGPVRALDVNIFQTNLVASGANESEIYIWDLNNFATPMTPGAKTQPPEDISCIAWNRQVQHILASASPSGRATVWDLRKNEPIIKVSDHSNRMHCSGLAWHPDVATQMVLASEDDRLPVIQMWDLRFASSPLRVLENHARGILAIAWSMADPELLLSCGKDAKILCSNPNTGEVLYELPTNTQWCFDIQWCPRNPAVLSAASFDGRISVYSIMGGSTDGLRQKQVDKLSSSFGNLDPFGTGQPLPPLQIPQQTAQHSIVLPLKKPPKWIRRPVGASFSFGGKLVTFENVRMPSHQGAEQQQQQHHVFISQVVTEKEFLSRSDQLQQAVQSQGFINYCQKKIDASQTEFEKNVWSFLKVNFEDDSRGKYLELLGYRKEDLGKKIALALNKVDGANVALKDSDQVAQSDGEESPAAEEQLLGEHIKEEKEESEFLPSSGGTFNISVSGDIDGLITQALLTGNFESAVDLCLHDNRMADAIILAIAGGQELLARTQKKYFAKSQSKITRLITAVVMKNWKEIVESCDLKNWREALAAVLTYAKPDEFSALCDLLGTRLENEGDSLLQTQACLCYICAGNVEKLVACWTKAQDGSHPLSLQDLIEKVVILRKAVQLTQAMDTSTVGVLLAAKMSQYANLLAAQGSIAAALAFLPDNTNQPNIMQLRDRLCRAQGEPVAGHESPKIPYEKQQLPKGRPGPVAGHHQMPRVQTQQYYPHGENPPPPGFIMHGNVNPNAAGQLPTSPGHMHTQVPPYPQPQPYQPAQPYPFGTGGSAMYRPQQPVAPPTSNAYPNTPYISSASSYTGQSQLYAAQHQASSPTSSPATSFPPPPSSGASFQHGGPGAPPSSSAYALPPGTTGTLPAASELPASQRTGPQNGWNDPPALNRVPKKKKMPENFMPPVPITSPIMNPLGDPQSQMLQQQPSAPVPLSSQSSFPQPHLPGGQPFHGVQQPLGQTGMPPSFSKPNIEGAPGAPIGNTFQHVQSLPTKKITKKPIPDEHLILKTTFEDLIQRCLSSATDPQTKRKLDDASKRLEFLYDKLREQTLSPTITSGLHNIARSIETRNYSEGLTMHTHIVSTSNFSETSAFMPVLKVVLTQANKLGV
# B1: wild-type ULK1 (Unc-51-like kinase 1) (enzyme, UniProt O70405 1-1051)
# chain: MEPGRGGVETVGKFEFSRKDLIGHGAFAVVFKGRHREKHDLEVAVKCINKKNLAKSQTLLGKEIKILKELKHENIVALYDFQEMANSVYLVMEYCNGGDLADYLHTMRTLSEDTVRLFLQQIAGAMRLLHSKGIIHRDLKPQNILLSNPGGRRANPSNIRVKIADFGFARYLQSNMMAATLCGSPMYMAPEVIMSQHYDGKADLWSIGTIVYQCLTGKAPFQASSPQDLRLFYEKNKTLVPAIPRETSAPLRQLLLALLQRNHKDRMDFDEFFHHPFLDASTPIKKSPPVPVPSYPSSGSGSSSSSSSASHLASPPSLGEMPQLQKTLTSPADAAGFLQGSRDSGGSSKDSCDTDDFVMVPAQFPGDLVAEAASAKPPPDSLLCSGSSLVASAGLESHGRTPSPSPTCSSSPSPSGRPGPFSSNRYGASVPIPVPTQVHNYQRIEQNLQSPTQQQTARSSAIRRSGSTTPLGFGRASPSPPSHTDGAMLARKLSLGGGRPYTPSPQVGTIPERPSWSRVPSPQGADVRVGRSPRPGSSVPEHSPRTTGLGCRLHSAPNLSDFHVVRPKLPKPPTDPLGATFSPPQTSAPQPCPGLQSCRPLRGSPKLPDFLQRSPLPPILGSPTKAGPSFDFPKTPSSQNLLTLLARQGVVMTPPRNRTLPDLSEASPFHGQQLGSGLRPAEDTRGPFGRSFSTSRITDLLLKAAFGTQASDSGSTDSLQEKPMEIAPSAGFGGTLHPGARGGGASSPAPVVFTVGSPPSGATPPQSTRTRMFSVGSSSSLGSTGSSSARHLVPGACGEAPELSAPGHCCSLADPLAANLEGAVTFEAPDLPEETLMEQEHTETLHSLRFTLAFAQQVLEIAALKGSASEAAGGPEYQLQESVVADQISQLSREWGFAEQLVLYLKVAELLSSGLQTAIDQIRAGKLCLSSTVKQVVRRLNELYKASVVSCQGLSLRLQRFFLDKQRLLDGIHGVTAERLILSHAVQMVQSAALDEMFQHREGCVPRYHKALLLLEGLQHTLTDQADIENIAKCKLCIERRLSALLSGVYA
# What was measured:
# [1] = target: EYFP-SEC31A 3SA (phospho-deficient) (UniProt O94979); experiment: co-IP
# [2] = target: EYFP-SEC31A 3SD (phospho-mimetic) (UniProt O94979); experiment: co-IP
binder,measurement,setting,value
B1,binding,[1],binds
same,binding,[2],binds

# No constants are given. Whether binding was seen depends on the method and setting. Binding seen in cells or lysates may run through a third protein. Binding can be weak; no strength is given.
